Among the data in PMC5355340 are binding values, retold here.

Amino acid sequences for entries named in this document (tags omitted). Residues count along the entry.
UniProt Q9NP84, residues 28-129: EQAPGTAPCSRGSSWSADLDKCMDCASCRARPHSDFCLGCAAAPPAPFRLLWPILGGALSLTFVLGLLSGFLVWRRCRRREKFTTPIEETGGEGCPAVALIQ

The assay concerns the target T1, TRAF2 (human (endogenous in A172 and GBM44)) (UniProt Q12933).
T1 sequence: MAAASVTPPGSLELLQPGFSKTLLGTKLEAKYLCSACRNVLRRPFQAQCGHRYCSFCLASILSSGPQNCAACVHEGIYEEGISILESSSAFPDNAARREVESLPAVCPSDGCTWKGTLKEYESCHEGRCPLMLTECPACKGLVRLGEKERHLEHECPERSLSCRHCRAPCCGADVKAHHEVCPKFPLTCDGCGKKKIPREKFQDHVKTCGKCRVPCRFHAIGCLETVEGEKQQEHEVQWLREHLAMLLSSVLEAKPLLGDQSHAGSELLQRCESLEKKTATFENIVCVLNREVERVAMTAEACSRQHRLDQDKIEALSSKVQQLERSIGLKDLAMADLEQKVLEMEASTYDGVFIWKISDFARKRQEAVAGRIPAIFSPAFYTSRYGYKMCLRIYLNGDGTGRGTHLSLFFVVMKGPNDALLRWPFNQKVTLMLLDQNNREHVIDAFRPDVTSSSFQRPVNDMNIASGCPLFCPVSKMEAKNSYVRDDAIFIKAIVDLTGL
Briefly: co-IP; A172 and GBM44 cells, pre-treated with 10 uM ATA or vehicle for 1 hr, stimulated with 100 ng/mL TWEAK for 2 min; lysis in 10 mM Tris-HCl pH 7.4, 0.5% Nonidet P-40, 150 mM NaCl; 1 mg lysate immunoprecipitated with TRAF2 antibody or isotype-matched control antibody; blot for Fn14 and TRAF2.

No constants are given. Whether binding was seen depends on the method and setting. Binding seen in cells or lysates may run through a third protein. Some entries that bind do so weakly or less than the wild type.

With “fibroblast growth factor-inducible 14 (Fn14) (from UniProt Q9NP84 28-129) (receptor)”, the binding entry is recorded as “binds”.
